Test results from publication PMC12431657, “Discovery and mechanistic insights of dibenzoylmethane as a broad spectrum inhibitor of coronavirus” (PLOS Pathogens, 2025).
Where a name gives a salt, the structure may show the parent alone. Read-outs that look alike come from different tables or passages of the source. The whole screen tested about 3,300 compounds, of which about 95 (3%) showed an effect of 50% or more. Some of the results follow.

System: HCoV-229E
Set-up: species or system Huh-7; HTS, protection from HCoV-229E induced cell death, luminescent cell viability (CellCounting-Lite 2.0), inhibition rate
Conditions: 24 h post infection, 1 h compound pre-incubation, 10 µM, inhibitor

Structure (SMILES) | 229E Inhibition rate | 229E Inhibition rate (229E Inhibition rate, 24 h)
COc1cc(O)c2c(c1)O[C@H](c1ccccc1)CC2=O [Pinostrobin] | 31.9% | 
C/C=C(/C)C(=O)O[C@@H]1c2c(ccc3ccc(=O)oc23)OC(C)(C)[C@@H]1OC(=O)/C(C)=C\C [(-)-Anomalin] | 51.7% | 
COc1ccc(C2CC(=O)c3c(O)cc(O)cc3O2)cc1O (racemic) [(Rac)-Hesperetin] | 10.6% | 
CC(C)=CCC[C@@](O)(CO[C@@H]1O[C@H](CO)[C@@H](O)[C@H](O)[C@H]1O)[C@H]1CC[C@]2(C)[C@@H]1CC[C@@H]1[C@@]3(C=O)CC[C@H](O[C@@H]4OC[C@H](O)[C@H](O[C@@H]5OC[C@@H](O)[C@H](O)[C@H]5O)[C@H]4O[C@@H]4O[C@@H](C)[C@H](O)[C@@H](O)[C@H]4O)C(C)(C)[C@@H]3CC[C@]12C [Gypenoside XLIX] | 12.9% | 
C[C@@H]1O[C@@H](OC[C@H]2O[C@@H](Oc3c(-c4ccc(O)cc4)oc4cc(O)cc(O)c4c3=O)[C@H](O[C@@H]3O[C@H](CO)[C@@H](O)[C@H](O)[C@H]3O)[C@@H](O)[C@@H]2O)[C@H](O)[C@H](O)[C@H]1O [Kaempferol-3-O-(2''-O-β-D-glucopyl)-β-D-rutinoside] | 13.6% | 
CC(C)C[C@@H](O)C(=O)O [(R)-Leucic acid] | 39% | 
CCOC(=O)/C=C/c1ccc(O)cc1 [p-Coumaric Acid Ethyl Ester] | 23% | 
O=c1cc(-c2ccc(O)c(O)c2)oc2cc(O)c([C@@H]3O[C@H](CO)[C@@H](O)[C@H](O)[C@H]3O)c(O)c12 [Isoorientin] | 51.3% | 
CC(CCC(=O)O)C(=O)O (stereo not shown) [2-Methylpentanedioic acid] | 38.7% | 
CCCCCCCC(=O)O [Octanoic acid] | 40.1% | 
O=C(CCc1ccc(O)c(O)c1)NCCCNCCCCNCCCNC(=O)CCc1ccc(O)c(O)c1 [Kukoamine A] | 11.3% | 
COc1cc(O[C@@H]2O[C@H](CO[C@@H]3O[C@H](CO)[C@@H](O)[C@H](O)[C@H]3O)[C@@H](O)[C@H](O)[C@H]2O)c2c(O)c3c(=O)oc(C)cc3cc2c1 [Cassiaside C] | 29.7% | 
Nc1ncnc2c1ncn2[C@H]1C[C@H](O)[C@@H](CO)O1 [2'-Deoxyadenosine monohydrate] |  | 8.6%
O=c1cccccc1O [Tropolone] | 5% | 
O=C1O[C@H]([C@@H](O)CO)C(O)=C1O[C@@H]1O[C@H](CO)[C@@H](O)[C@H](O)[C@H]1O [2-O-β-D-Glucopyranosyl-L-ascorbic acid] | 10.6% | 
O=C(CC(O)(CC(=O)OCc1ccc(O[C@@H]2O[C@H](CO)[C@@H](O)[C@H](O)[C@H]2O)cc1)C(=O)O)OCc1ccc(O[C@@H]2O[C@H](CO)[C@@H](O)[C@H](O)[C@H]2O)cc1 [Parishin C] | 21.5% | 
COc1cc2c(cc1O)-c1c(OC)c(O)cc3c1[C@H](C2)NCC3 [Laetanine] | 6.3% | 
CC(C)=CCC[C@@H](C)[C@H]1CC[C@H]2[C@@H]3CC=C4C[C@@H](O)CC[C@]4(C)[C@H]3CC[C@]12C [Desmosterol] | 29.1% | 
CC(C)=CCc1c(O)ccc(C(=O)[C@@H]2[C@@H](c3c(O)cc(O)c4c(=O)c(CC=C(C)C)c(-c5ccc(O)cc5O)oc34)C=C(C)C[C@H]2c2ccc(O)cc2O)c1O [Kuwanon H] | 0% | 
CC(C)(C)CC(C)(C)c1ccc(O)cc1 [4-tert-Octylphenol] | 5.2% | 

Structure (SMILES) | 229E Inhibition rate | 229E Inhibition rate (229E Inhibition rate, 24 h)
CCCCC[C@H](O)/C=C/[C@H]1C(=O)C[C@H](O)[C@@H]1C/C=C\CCCC(=O)O [Prostaglandin D2] | 17% | 
CC(=O)O[C@]12CCC(C(=O)O)=CC[C@]13CC[C@H]2[C@@](C)(/C=C/C=C(\C)C(=O)O)OC3=O [Pseudolaric Acid C2] | 7.8% | 
O=C(/C=C/c1ccc(O)c(O)c1)O[C@@H](C(=O)O)[C@@H](OC(=O)/C=C/c1ccc(O)c(O)c1)C(=O)O [L-Chicoric Acid] |  | 24.1%
O=C1N[C@@H]2[C@@H](O)[C@@H](O)[C@H](O)[C@@H](CO)N2C1=O [Kifunensine] | 13.3% | 
CCCCCCCCOC(=O)c1cc(O)c(O)c(O)c1 [Octyl gallate] | 47.6% | 
CCCCCCCCCCCCCCCCCCCCCCCCC(=O)O [Pentacosanoic acid] | 12.4% | 
O=C(O)Cn1ccnc1 [Imidazol-1-yl-acetic acid] | 10.3% | 
CC(=O)c1cc2c(CO)cc(O)cc2oc1=O [Armillarisin A] | 17.6% | 
COc1ccc(-c2cc(=O)c3c(O)cc(O[C@@H]4O[C@H](CO[C@@H]5O[C@@H](C)[C@H](O)[C@@H](O)[C@H]5O)[C@@H](O)[C@H](O)[C@H]4O)cc3o2)cc1 [Linarin] | 7.6% | 
COc1ccc(-c2coc3cc(O[C@@H]4O[C@H](CO)[C@@H](O)[C@H](O)[C@H]4O)c(OC)c(O)c3c2=O)cc1O [Iristectorin A] | 15.7% | 
COc1cc2c(cc1OC)-c1cc3ccc4c(c3c[n+]1CC2)OCO4 [Epiberberine (chloride)] | 18.2% | 
CC(=O)N[C@@H](Cc1ccccc1)C(=O)O [N-Acetyl-L-phenylalanine] | 5.6% | 
CCCCCCCC(=O)CCc1ccc(O)c(OC)c1 [Paradol] | 25% | 
Cc1cn([C@H]2C[C@H](O)[C@@H](COP(=O)(O)O)O2)c(=O)[nH]c1=O [Thymidine-5'-monophosphate (disodium) salt] | 15.5% | 
CC(C)(O)[C@H](O)COc1c2ccoc2cc2oc(=O)ccc12 [Oxypeucedanin hydrate] | 17% | 
CN1[C@H]2C[C@H](OC(=O)[C@H](CO)c3ccccc3)C[C@@H]1[C@@H](O)C2 [Anisodamine] |  | 10.7%
CC(=O)N[C@@H]1[C@@H](O)[C@H](O)[C@@H](CO)O[C@@H]1O [N-Acetyl-D-glucosamine] | 11.1% | 
CC(C)=CCC/C(C)=C/CC/C(C)=C/CC/C(C)=C/CC1=C(C)C(=O)c2ccccc2C1=O [Menaquinone-4] | 4.1% | 
O=c1c(O)c(-c2ccc(O)c(O)c2)oc2cc(O[C@@H]3O[C@H](CO)[C@@H](O)[C@H](O)[C@H]3O)cc(O)c12 [Quercimeritrin] | 27.7% | 
CCCCCC(=O)CC(=O)NC1CCOC1=O (racemic) [N-(3-Oxooctanoyl)-DL-homoserine lactone] | 12% | 

Structure (SMILES) | 229E Inhibition rate | 229E Inhibition rate (229E Inhibition rate, 24 h)
C=CCS[S+]([O-])CC=C (stereo not shown) [Allicin] | 20.7% | 
COc1cc([C@H]2Oc3ccc(-c4cc(=O)c5c(O)cc(O)cc5o4)cc3O[C@@H]2CO)ccc1O (racemic) [(Rac)-Hydnocarpin] | 0% | 
O=C(O)[C@@H]1CCN1 [L-Azetidine-2-carboxylic acid] | 11.4% | 
COc1c(/C=C/C(=O)c2ccc(O)cc2)ccc(O)c1O [Licochalcone B] | 25.4% | 
Cc1cnccn1 [2-Methylpyrazine] | 12.8% | 
O=C(/C=C/c1ccc(O)cc1)c1ccc(O[C@@H]2O[C@H](CO)[C@@H](O)[C@H](O)[C@H]2O)cc1O [Neoisoliquiritin] | 24.9% | 
CC(=O)OC[C@H]1O[C@@H](OC[C@H]2O[C@@H](OC(=O)[C@]34CCC(C)(C)C[C@H]3C3=CC[C@@H]5[C@@]6(C)CC[C@H](O[C@@H]7OC[C@H](O)[C@H](O)[C@H]7O[C@@H]7O[C@H](CO)[C@@H](O)[C@H](O)[C@H]7O)C(C)(C)[C@@H]6CC[C@@]5(C)[C@]3(C)CC4)[C@H](O)[C@@H](O)[C@@H]2O)[C@H](O)[C@@H](O)[C@@H]1O[C@@H]1O[C@@H](C)[C@H](O)[C@@H](O)[C@H]1O [Acanthopanaxoside B] | 6.2% | 
Cc1ccc(CO)o1 [5-Methyl-2-furanmethanol] | 15.6% | 
C[C@]12CC[C@@H]3c4ccc(O)cc4CC[C@H]3[C@@H]1C[C@@H](O)[C@@H]2O [Estriol] | 47.7% | 
COC(=O)Cc1c[nH]c2ccccc12 [Methyl 2-(1H-indol-3-yl)acetate] | 38.3% | 
O=C1CCC[C@@H]2[C@H]3CCCN4CCC[C@@H](CN12)[C@H]34 [Allomatrine] | 8.4% | 
Cc1cccc2c3c(ccc12)C1=C(C(=O)C3=O)[C@@H](C)CO1 [Dihydrotanshinone I] | 18.1% | 
C=C[C@H]1[C@H](O[C@@H]2O[C@H](CO)[C@@H](O)[C@H](O)[C@H]2O)OC=C(C(=O)OC)[C@H]1CCOC(=O)c1cccc(O[C@@H]2O[C@H](CO)[C@@H](O)[C@H](O)[C@H]2O)c1O [Depressine] | 0% | 
O=C(O)c1ccc2ccccc2n1 [Quinoline-2-carboxylic acid] | 10.5% | 
OC[C@H]1O[C@@H](O[C@H]2[C@H](O)[C@@H](O)[C@@H](O)O[C@@H]2CO)[C@H](O)[C@@H](O)[C@H]1O [α-Lactose] | 8.4% | 
COc1ccc(-c2cc(=O)c3c(O)cc(O[C@@H]4O[C@H](CO[C@@H]5O[C@@H](C)[C@H](O)[C@@H](O)[C@H]5O)[C@@H](O)[C@H](O)[C@H]4O)cc3o2)cc1O [Diosmin] | 13.1% | 
COc1cc(O)cc(/C=C/c2ccccc2)c1 [Pinosylvin monomethyl ether] | 0% | 
CC(C)CCCC(C)CCCC(C)CCCCC(C)CCCC(C)CCCC(C)C (stereo not shown) [Squalane] | 8.8% | 
